Laboratory results: patent US20070249620A1, “Urea Derivative” (priority 2004, published 2007)
Some results were stated once for a whole list of compounds, not compound by compound. At least one compound was matched to its structure with a doubt left.

How the values were obtained:
mouse DGAT1 = target: T1, mouse DGAT1 (Mus musculus, UniProt Q9Z2A7); experiment: DGAT1 inhibitory effect test (microsome fraction, [14C]-oleoyl-CoA, triglyceride radioactivity by TLC); assay type: biochemical; conditions: concentration of the test compound 0.1 μg/ml; mouse DGAT1 microsomes, 23° C., 30 minutes
T1 construct: made in house; host or cells: insect cells (High Five, Sf9, Sf21, etc.), baculovirus expression system (Invitrogen)
T1 sequence (Q9Z2A7 1-498): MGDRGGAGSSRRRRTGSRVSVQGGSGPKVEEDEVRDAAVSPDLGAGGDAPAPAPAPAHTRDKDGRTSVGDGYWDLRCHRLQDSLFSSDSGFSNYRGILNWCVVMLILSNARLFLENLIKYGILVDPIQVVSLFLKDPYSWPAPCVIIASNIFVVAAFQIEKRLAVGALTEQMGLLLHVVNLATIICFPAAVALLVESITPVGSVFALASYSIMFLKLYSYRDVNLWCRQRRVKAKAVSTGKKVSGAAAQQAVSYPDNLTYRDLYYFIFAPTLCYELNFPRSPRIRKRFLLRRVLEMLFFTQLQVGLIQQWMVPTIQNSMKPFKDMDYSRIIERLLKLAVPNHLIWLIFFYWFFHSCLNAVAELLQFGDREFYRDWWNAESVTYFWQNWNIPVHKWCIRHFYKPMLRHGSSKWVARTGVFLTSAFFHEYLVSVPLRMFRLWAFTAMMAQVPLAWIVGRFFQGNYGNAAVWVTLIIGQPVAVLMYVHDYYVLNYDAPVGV
How it was run: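 Inhibition was scored from radiolabelled triglyceride separated by TLC, relative to vehicle and net of a 0-min background. The reaction ran for 30 min at room temperature (23 °C) in Tris-HCl pH 8.0 with MgCl2, BSA and Triton X-100. Substrates were 30 μM [14C]-oleoyl-CoA and 0.5 mM dioleoylglycerol, with mouse DGAT1 microsomes from baculovirus-infected insect cells as enzyme.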

male C57BL/6N mouse = experiment: Neutral fat absorption inhibitory effect (triglyceride concentration in small intestine lymph fluid after oral fat emulsion); assay type: in vivo; conditions: compound 10 or 30 mg/kg orally with 20% neutral fat emulsion, one hour after administration

| SMILES | Inhibitory ratio (mouse DGAT1) | neutral fat absorption inhibitory effect (decrease in triglyceride concentration in lymph fluid vs control group) (male C57BL/6N mouse) |
| --- | --- | --- |
| COc1ccc(C)cc1NC(=O)Nc1ccc2c(c1)CCN(C(=O)Nc1ccc(OCCO)cc1Cl)C2 [Example 409, 6-[3-(2-methoxy-5-methyl-phenyl)-ureido]-3,4-dihydro-1H-isoquinoline-2-carboxylic acid[2-chloro-4-(2-hydroxy-ethoxy)-phenyl]-amide] | ≥ 50% | ≥ 60% |
| CCOc1ccccc1NC(=O)Nc1ccc(N2CCN(C(=O)Nc3ccc(OCCO)cc3C(F)(F)F)CC2)nc1 [Example 412, 4-{5-[3-(2-ethoxy-phenyl)-ureido]-pyridin-2-yl}-piperazine-1-carboxylic acid[4-(2-hydroxy-ethoxy)-2-trifluoromethyl-phenyl]-amide] | ≥ 50% | ≥ 60% |
| O=C(Nc1ccc(N2CCN(C(=O)Nc3ncc(Cl)cc3Cl)CC2)cc1)Nc1ccccc1F [Example 413, 4-{4-[3-(2-fluoro-phenyl)-ureido]-phenyl}-piperazine-1-carboxylic acid(3,5-dichloro-pyridin-2-yl)-amide] | ≥ 50% | ≥ 60% |
| CCOc1ccc(Cl)cc1NC(=O)Nc1ccc(N2CCN(C(=O)Nc3ncc(Cl)cc3Cl)CC2)cc1 [Example 415, 4-{4-[3-(5-chloro-2-ethoxy-phenyl)-ureido]-phenyl}-piperazine-1-carboxylic acid(3,5-dichloro-pyridin-2-yl)-amide] | ≥ 50% | ≥ 60% |
| COc1ccc(C)cc1NC(=O)Nc1ccc(N2CCN(C(=O)Nc3ncc(Cl)cc3Cl)CC2)nc1 [Example 416, 4-{5-[3-(2-methoxy-5-methyl-phenyl)-ureido]-pyridin-2-yl}-piperazine-1-carboxylic acid(3,5-dichloro-pyridin-2-yl)-amide] | ≥ 50% | ≥ 60% |
| CCOc1ccc(C)cc1NC(=O)Nc1ccc(N2CCN(C(=O)Nc3ccncc3C)CC2)cc1 [Example 419, 4-{4-[3-(2-ethoxy-5-methyl-phenyl)-ureido]-phenyl}-piperazine-1-carboxylic acid(3-methyl-pyridin-4-yl)-amide] | ≥ 50% | ≥ 60% |
| O=C(Nc1ccc(N2CCN(C(=O)Nc3ccc(OCCO)cc3C(F)(F)F)CC2)c(F)c1)Nc1ccccc1F [Example 447, 4-{2-fluoro-4-[3-(2-fluoro-phenyl)-ureido]-phenyl}-piperazine-1-carboxylic acid[4-(2-hydroxy-ethoxy)-2-trifluoromethyl-phenyl]-amide] | ≥ 50% | ≥ 60% |
